Source: PubChem BioAssay AID1224826 (NIAID, 2016)
Test: 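Regulators of Tlr4 signalling leading to Tnf-alpha expression in macrophages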 (primary screen). Cell system: RAW264.7 G9 macrophages from mouse bearing reporters for p65 (GFP) and the Tnf promoter (mCherry). Reagents: siRNA pool against mouse genes, 100 nM. Timing: 16 h of LPS stimulation, after 2 days of siRNA transfection. Challenge: bacterial lipopolysaccharide (Salmonella minnesota R595), 10 ng/ml. Measurement: 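Imaged Tnf reporter mCherry in nuclei, minus background, normalised per plate to the median and expressed as robust z-scores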. Reading the numbers: Tnf reporter robust z-score: higher = stronger Tnf promoter reporter signal after LPS; Tnf reporter intensity: higher = stronger Tnf promoter reporter signal. Active means: 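a well counts as active at a score of -1.3 or below (Tlr4 knock-down control median) or above 3 (raised signal); controls and wells holding fewer than 50 cells are excluded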. Meaning of the calls: active = Tnf reporter clearly lowered or raised; inactive = no clear change in Tnf reporter.
The whole screen tested about 17,000 reagents; shown is a part drawn at random. Over the whole deposit, about 1,110 (6.6%) got an active call. 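Active means lowered or raised reporter signal; replicate intensities are raw and not normalised per plate.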

no.	gene symbol	Tnf reporter robust z-score	fewer than 50 cells in well	Tnf reporter intensity, replicate 1	Tnf reporter intensity, replicate 2	activity call
1	Foxp2 (forkhead box P2)	0.81	enough cells in well	289	334	inactive
2	Mex3d (mex3 RNA binding family member D)	0.61	enough cells in well	163	146	inactive
3	Kcng3 (potassium voltage-gated channel, subfamily G, member 3)	0.49	enough cells in well	257	192	inactive
4	5330426L24Rik (RIKEN cDNA 5330426L24 gene)	1.71	enough cells in well	320	193	inactive
5	Smim8 (small integral membrane protein 8)	0.37	enough cells in well	165	73.7	inactive
6	Rin1 (Ras and Rab interactor 1)	-0.16	enough cells in well	327	171	inactive
7	Ppp1r3a (protein phosphatase 1, regulatory subunit 3A)	0.76	enough cells in well	334	221	inactive
8	Vmn1r190-ps (vomeronasal 1 receptor 190, pseudogene)	0.79	enough cells in well	156	109	inactive
9	Phip (pleckstrin homology domain interacting protein)	0.44	enough cells in well	319	189	inactive
10	Amfr (autocrine motility factor receptor)	0.88	enough cells in well	229	208	inactive
11	Paxip1	-0.48	enough cells in well	194	158	inactive
12	Washc3 (WASH complex subunit 3)		fewer than 50 cells per well; well left out of calls	133	38.1	inactive
13	Gpx4 (glutathione peroxidase 4)	-0.98	enough cells in well	170	104	inactive
14	Narf (nuclear prelamin A recognition factor)	0.52	enough cells in well	185	87.1	inactive
15	Zbtb24 (zinc finger and BTB domain containing 24)	0.49	enough cells in well	135	182	inactive
16	Rbm34 (RNA binding motif protein 34)	1.66	enough cells in well	293	253	inactive
17	Myef2 (myelin basic protein expression factor 2, repressor)	-0.6	enough cells in well	210	67.8	inactive
18	Gas5 (growth arrest specific 5)	-0.96	enough cells in well	163	103	inactive
19	Tfrc (transferrin receptor)	0.42	enough cells in well	258	158	inactive
20	Gga1	-0.97	enough cells in well	158	97.3	inactive
21	Patz1 (POZ (BTB) and AT hook containing zinc finger 1)	0.45	enough cells in well	245	288	inactive
22	Tagln (transgelin)	-0.66	enough cells in well	209	86.7	inactive
23	Taf7l (TATA-box binding protein associated factor 7 like)	0.21	enough cells in well	283	122	inactive
24	Mag (myelin-associated glycoprotein)	2.07	enough cells in well	328	244	inactive
25	Abhd18 (abhydrolase domain containing 18)	1.46	enough cells in well	246	106	inactive
26	Cycs (cytochrome c, somatic)	2.1	enough cells in well	374	240	inactive
27	H2-T10 (histocompatibility 2, T region locus 10)	0.75	enough cells in well	330	190	inactive
28	Mrgpra6 (MAS-related GPR, member A6)	1.41	enough cells in well	336	155	inactive
29	Add2 (adducin 2)	0.19	enough cells in well	176	184	inactive
30	Ptges (prostaglandin E synthase)	-1.22	enough cells in well	149	109	inactive
31	Nfx1 (nuclear transcription factor, X-box binding 1)	0.13	enough cells in well	260	183	inactive
32	Kank2 (KN motif and ankyrin repeat domains 2)	-0.47	enough cells in well	182	149	inactive
33	Sdccag8 (serologically defined colon cancer antigen 8)	-0.86	enough cells in well	123	58.6	inactive
34	Anp32a (acidic nuclear phosphoprotein 32 family member A)	-0.78	enough cells in well	96.9	191	inactive
35	Tmem38b (transmembrane protein 38B)		fewer than 50 cells per well; well left out of calls	61.3	38.5	inactive
36	Ppp2ca	-0.14	enough cells in well	179	161	inactive
37	A330070K13Rik (RIKEN cDNA A330070K13 gene)		fewer than 50 cells per well; well left out of calls	37.3	58.2	inactive
38	Bcl6b (B cell CLL/lymphoma 6, member B)	-0.54	enough cells in well	80.8	184	inactive
39	Arpin (actin-related protein 2/3 complex inhibitor)		fewer than 50 cells per well; well left out of calls	151	27.4	inactive
40	Sulf1 (sulfatase 1)	0.08	enough cells in well	114	91.9	inactive
